According to paper PMC4357696:
No constants are given. Whether binding was seen depends on the method and setting. Some entries that bind do so weakly or less than the wild type. Where a sequence is shown, tags or fusion partners need not be part of it.

The chains behind the UniProt entries cited, without tags or fusion partners.
UniProt P15873: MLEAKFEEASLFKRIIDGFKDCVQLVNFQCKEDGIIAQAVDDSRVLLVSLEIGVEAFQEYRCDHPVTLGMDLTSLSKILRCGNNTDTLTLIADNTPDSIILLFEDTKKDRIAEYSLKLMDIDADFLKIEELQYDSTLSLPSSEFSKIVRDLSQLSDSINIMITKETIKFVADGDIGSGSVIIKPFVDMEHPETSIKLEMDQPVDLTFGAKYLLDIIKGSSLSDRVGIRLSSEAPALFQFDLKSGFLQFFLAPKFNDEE

Target: T1, Rad5 1-984 a.a., Gal4 DNA-binding domain fusion (pGBT9-rad5-1-984 a.a., p442) (budding yeast) (UniProt P32849)
T1 sequence: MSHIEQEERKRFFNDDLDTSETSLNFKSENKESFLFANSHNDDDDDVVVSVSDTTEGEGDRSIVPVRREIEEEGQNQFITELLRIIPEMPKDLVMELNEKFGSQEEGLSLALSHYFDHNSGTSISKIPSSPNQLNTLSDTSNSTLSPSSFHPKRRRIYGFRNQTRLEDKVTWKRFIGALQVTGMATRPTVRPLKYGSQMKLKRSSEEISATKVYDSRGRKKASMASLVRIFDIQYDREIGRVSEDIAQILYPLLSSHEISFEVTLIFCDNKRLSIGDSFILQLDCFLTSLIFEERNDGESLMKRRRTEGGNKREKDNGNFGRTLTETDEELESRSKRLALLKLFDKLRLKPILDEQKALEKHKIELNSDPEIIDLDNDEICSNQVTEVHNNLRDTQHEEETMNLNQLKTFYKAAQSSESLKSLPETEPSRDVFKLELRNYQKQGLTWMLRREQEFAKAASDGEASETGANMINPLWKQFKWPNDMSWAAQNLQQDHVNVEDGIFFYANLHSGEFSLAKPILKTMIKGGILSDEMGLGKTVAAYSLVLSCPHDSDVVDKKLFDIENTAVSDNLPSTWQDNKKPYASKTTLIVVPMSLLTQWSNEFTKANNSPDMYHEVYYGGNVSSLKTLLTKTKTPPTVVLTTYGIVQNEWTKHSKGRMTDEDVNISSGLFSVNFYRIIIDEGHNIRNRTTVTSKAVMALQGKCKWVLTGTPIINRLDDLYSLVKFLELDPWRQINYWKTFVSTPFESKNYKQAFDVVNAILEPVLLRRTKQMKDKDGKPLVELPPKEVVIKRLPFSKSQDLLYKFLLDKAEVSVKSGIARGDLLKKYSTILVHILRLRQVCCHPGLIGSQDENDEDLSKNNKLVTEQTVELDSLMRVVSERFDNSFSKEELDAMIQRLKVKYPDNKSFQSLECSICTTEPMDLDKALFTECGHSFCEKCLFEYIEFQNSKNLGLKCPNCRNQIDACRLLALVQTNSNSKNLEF
Test: two-hybrid; yeast two-hybrid, Gal4 AD and BD fusions expressed from high-copy-number plasmids (2μ-based); also the Rad5 deletion constructs in pGBT9

PCNA, Gal4 activation domain fusion (pGAD424-POL30, p343) (from UniProt P15873 1-258)
binding: binds
